Experimental data taken from patent US11267814B2, “Compounds for bone growth” (OsteoQC Inc., priority 2013, dated 2022).
Structures can show the parent of a compound that is named as a salt. Some results were stated once for a whole list of compounds, not compound by compound.

Target: T1, sclerostin (Homo sapiens, UniProt Q9BQB4)
T1 construct: host or cells: human embryonic cells (reporter cells)
T1 sequence (Q9BQB4 24-213): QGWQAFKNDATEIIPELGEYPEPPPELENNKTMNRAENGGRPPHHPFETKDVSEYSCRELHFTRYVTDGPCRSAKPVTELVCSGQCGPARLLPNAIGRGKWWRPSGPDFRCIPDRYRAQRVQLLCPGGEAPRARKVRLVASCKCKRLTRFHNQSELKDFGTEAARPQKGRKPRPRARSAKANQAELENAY
Assay: Modulation of sclerostin/Wnt activity (sclerostin inhibition assay): restoring Wnt3a signaling in the presence of sclerostin
Assay type: cell-based
Conditions: human embryonic cells; result in words

Row | SMILES | effect on Wnt3a signaling
1 | CC(Cn1c2ccccc2c2ccccc21)N(C)C (centres unmarked) [Example 2, 1-(9H-carbazol-9-yl)-N,N-dimethylpropan-2-amine] | restored Wnt3a signaling in the cell
2 | COc1ccc2c3ccnc(C)c3n(CC(C)N(C)C)c2c1 (centres unmarked) [Example 3, 1-(7-methoxy-1-methyl-9H-pyrido[3,4-b]indol-9-yl)-N,N-dimethylpropan-2-aminium formate] | restored Wnt3a signaling in the cell
3 | Cc1nccc2c3ccc(O)cc3n(CC(C)N(C)C)c12 (centres unmarked) [Example 4, 9-(2-(dimethylamino)propyl)-1-methyl-9H-pyrido[3,4-b]indol-7-ol] | restored Wnt3a signaling in the cell
4 | COc1ccc2c3ccnc(C)c3n(C(C)CN(C)C)c2c1 (centres unmarked) [Example 5, 2-(7-methoxy-1-methyl-9H-pyrido[3,4-b]indol-9-yl)-N,N-dimethylpropan-1-amine] | restored Wnt3a signaling in the cell
5 | CCN(CC)CCCn1c2cc(OC)ccc2c2ccnc(C)c21 [Example 6, N,N-diethyl-3-(7-methoxy-1-methyl-9H-pyrido[3,4-b]indol-9-yl)propan-1-amine] | restored Wnt3a signaling in the cell
6 | COc1ccc2c3ccnc(C)c3n(CCN(C)C)c2c1 [Example 7, 2-(7-methoxy-1-methyl-9H-pyrido[3,4-b]indol-9-yl)-N,N-dimethyl ethanamine] | restored Wnt3a signaling in the cell
7 | COc1ccc2c3ccnc(C)c3n(CC(C)N3CCOCC3)c2c1 (centres unmarked) [Example 8, 4-(1-(7-methoxy-1-methyl-9H-pyrido[3,4-b]indol-9-yl)propan-2-yl) morpholine] | restored Wnt3a signaling in the cell
8 | COc1ccc2c3ccnc(C)c3n(CC(C)N3CCCCC3)c2c1 (centres unmarked) [Example 9, 7-methoxy-1-methyl-9-(2-(piperidin-1-yl)propyl)-9H-pyrido[3,4-b]indole] | restored Wnt3a signaling in the cell
9 | COc1ccc2c3ccnc(C)c3n(CCN3CCCCC3)c2c1 [Example 10, 7-methoxy-1-methyl-9-(2-(piperidin-1-yl)ethyl)-9H-pyrido[3,4-b]indole] | restored Wnt3a signaling in the cell
10 | COc1ccc2c3ccnc(C)c3n(CCCN3CCOCC3)c2c1 [Example 11, 4-(3-(7-methoxy-1-methyl-9H-pyrido[3,4-b]indol-9-yl)propyl)morpholine formate] | restored Wnt3a signaling in the cell
11 | COc1ccc2c3ccnc(C)c3n(CCN3CCOCC3)c2c1 [Example 12, 4-(2-(7-methoxy-1-methyl-9H-pyrido[3,4-b]indol-9-yl)ethyl)morpholine] | restored Wnt3a signaling in the cell
12 | Cc1nccc2c3ccc(O)cc3n(CCN3CCOCC3)c12 [Example 13, 1-methyl-9-(2-morpholinoethyl)-9H-pyrido[3,4-b]indol-7-ol] | restored Wnt3a signaling in the cell
13 | COc1ccc2c3ccnc(C)c3n(CCN3CCN(C(=O)OC(C)(C)C)CC3)c2c1 [Example 14, t-butyl 4-(2-(7-methoxy-1-methyl-9H-pyrido[3,4-b]indol-9-yl)ethyl) piperazine-1-carboxylate] | restored Wnt3a signaling in the cell
14 | COc1ccc2c3ccnc(C)c3n(CCCN3CCN(C(=O)OC(C)(C)C)CC3)c2c1 [Example 15, t-butyl 4-(3-(7-methoxy-1-methyl-9H-pyrido[3,4-b]indol-9-yl)propyl) piperazine-1-carboxylate] | restored Wnt3a signaling in the cell
15 | COc1ccc2c3ccnc(C)c3n(CCN3CCNCC3)c2c1 [Example 16, 7-methoxy-1-methyl-9-(2-(piperazin-1-yl)ethyl)-9H-pyrido[3,4-b]indole] | restored Wnt3a signaling in the cell
16 | COc1ccc2c3ccnc(C)c3n(CCCN3CCNCC3)c2c1 [Example 17, 7-methoxy-1-methyl-9-(3-(piperazin-1-yl)propyl)-9H-pyrido[3,4-b]indole trifluoroacetate] | restored Wnt3a signaling in the cell
17 | COc1ccc2c3ccnc(C)c3n(CCN(C)CCO)c2c1 [Example 18, 2-((2-(7-methoxy-1-methyl-9H-pyrido[3,4-b]indol-9-yl)ethyl)(methyl)amino)ethanol] | restored Wnt3a signaling in the cell
18 | COc1ccc2c(c1)[nH]c1c(C)nc(O)cc12 [Example 19, 7-methoxy-1-methyl-9H-pyrido[3,4-b]indol-3-ol] | restored Wnt3a signaling in the cell
19 | Cc1nc(O)cc2c1[nH]c1cc(O)ccc12 [Example 20, 1-methyl-9H-pyrido[3,4-b]indole-3,7-diol] | restored Wnt3a signaling in the cell
20 | COc1ccc2c(c1)[nH]c1c(C)[n+]([O-])ccc12 [Example 21, 7-methoxy-1-methyl-9H-pyrido[3,4-b]indole pyridine N-oxide] | restored Wnt3a signaling in the cell
21 | Oc1ccc2c(c1)[nH]c1c(C(F)(F)F)nccc12 [Example 23, 1-(trifluoromethyl)-9H-pyrido[3,4-b]indol-7-ol] | restored Wnt3a signaling in the cell
22 | COc1ccc2c3ccnc(C(F)(F)F)c3n(CCN3CCN(C(=O)OC(C)(C)C)CC3)c2c1 [Example 24, t-butyl 4-(2-(7-methoxy-1-(trifluoromethyl)-9H-pyrido[3,4-b]indol-9-yl)ethyl)piperazine-1-carboxylate] | restored Wnt3a signaling in the cell
23 | COc1ccc2c3ccnc(C(F)(F)F)c3n(CCN3CCOCC3)c2c1 [Example 25, 4-(2-(7-methoxy-1-(trifluoromethyl)-9H-pyrido[3,4-b]indol-9-yl)ethyl) morpholine] | restored Wnt3a signaling in the cell
24 | Oc1ccc2c3ccnc(C(F)(F)F)c3n(CCN3CCOCC3)c2c1 [Example 26, 9-(2-morpholinoethyl)-1-(trifluoromethyl)-9H-pyrido[3,4-b]indol-7-ol] | restored Wnt3a signaling in the cell
25 | COc1ccc2c3ccnc(C(F)(F)F)c3n(CC(C)N(C)C)c2c1 (centres unmarked) [Example 27, 1-(7-methoxy-1-(trifluoromethyl)-9H-pyrido[3,4-b]indol-9-yl)-N,N-dimethylpropan-2-amine] | restored Wnt3a signaling in the cell
26 | COc1ccc2c3ccnc(C(F)(F)F)c3n(CC(C)N3CCOCC3)c2c1 (centres unmarked) [Example 28, 4-(1-(7-methoxy-1-(trifluoromethyl)-9H-pyrido[3,4-b]indol-9-yl)propan-2-yl)morpholine] | restored Wnt3a signaling in the cell
27 | COc1ccc2c3ccnc(C(F)(F)F)c3n(CCN3CCOCC3C)c2c1 (centres unmarked) [Example 29, 4-(2-(7-methoxy-1-(trifluoromethyl)-9H-pyrido[3,4-b]indol-9-yl)ethyl)-3-methylmorpholine] | restored Wnt3a signaling in the cell
28 | CC1COCCN1CCn1c2cc(O)ccc2c2ccnc(C(F)(F)F)c21 (centres unmarked) [Example 30, 9-(2-(3-methylmorpholino)ethyl)-1-(trifluoromethyl)-9H-pyrido[3,4-b] indol-7-ol] | restored Wnt3a signaling in the cell
29 | CC1CN(CCn2c3cc(O)ccc3c3ccnc(C(F)(F)F)c32)CC(C)O1 (centres unmarked) [Example 31, 9-(2-(2,6-dimethylmorpholino)ethyl)-1-(trifluoromethyl)-9H-pyrido[3,4-b]indol-7-ol] | restored Wnt3a signaling in the cell
